Results published in article PMC7341485 (Chemical research in toxicology, 2019).
Entries after “also recorded” stand apart in the source; their conditions may differ.

Tested on: iPSC-derived cortical glutamatergic neurons
Experiment: Neurite outgrowth assay in iPSC-derived neurons
Format: cell-based, human
Details: 24 h treatment, Figure 5D

## CC(C)n1nc(-c2cc3cc(O)ccc3[nH]2)c2c(N)ncnc21 [pp242]
  inhibition of neurite outgrowth, in words: did not inhibit neurite outgrowth; also recorded: didn’t inhibit neurite outgrowth
